Source: PubChem BioAssay AID504847 (National Center for Advancing Translational Sciences (NCATS), 2011)
Values joined by “and” are separate entries in the source; they are usually repeats but may differ in a detail not shown here. Identical values can stand only once. Screen size: about 400,000 compounds; about 3,700 (0.93%) were called active. The inconclusive results got no clear call from the source; some entries with a clear call stand among them for comparison. The call rests on the fitted dose curve; in most records, active means well fitted inhibition curve with a large enough effect; inconclusive means small, poorly fitted or top-dose-only effect, or another doubt; inactive means no such curve, though single readings can be large or run the other way. Potencies beside an inconclusive call are fits to weak or partial responses and may not hold up.
On the % scale 0 is the no-effect control and ±100 the full control effect; potency means the concentration at half of the fitted maximal effect.

By UniProt entry, the sequences of proteins in these tests, tags left out. Where a name states a change or a piece, a line headed by the entry shows the natural chain unless it says otherwise.
UniProt P11473: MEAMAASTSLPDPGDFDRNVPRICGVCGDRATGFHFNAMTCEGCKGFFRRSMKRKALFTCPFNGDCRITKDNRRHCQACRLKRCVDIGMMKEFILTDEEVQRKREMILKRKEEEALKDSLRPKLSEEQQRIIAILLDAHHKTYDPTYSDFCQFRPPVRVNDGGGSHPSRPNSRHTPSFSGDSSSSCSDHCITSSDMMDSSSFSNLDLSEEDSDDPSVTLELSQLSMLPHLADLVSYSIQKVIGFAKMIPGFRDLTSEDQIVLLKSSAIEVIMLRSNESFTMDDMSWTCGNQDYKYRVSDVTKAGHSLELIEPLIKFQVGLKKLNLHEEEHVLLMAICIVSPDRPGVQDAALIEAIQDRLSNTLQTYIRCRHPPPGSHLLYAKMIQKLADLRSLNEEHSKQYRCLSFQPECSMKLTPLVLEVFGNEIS

The compounds below were run against Vitamin D3 receptor (Homo sapiens) (UniProt P11473) (assay: Inhibitors of the vitamin D receptor (VDR): qHTS). Conditions: VDR-SRC2-3 peptide fluorescence polarization, 2 h; max response, negative = inhibition: active compounds read low.
In short: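 After 23 nl compound addition and a short centrifugation, plates sat for 2 hours at ambient temperature; polarization of fluorescence then indicated loss of VDR binding to peptide SRC2-3.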
`O=S(=O)(O)c1cc(OS(=O)(=O)c2ccccc2)cc2ccccc12` was tested, and the max response, negative = inhibition was inactive: 0.908%.
`O=C1c2ccc(Oc3cccc([N+](=O)[O-])c3)cc2C(=O)N1c1ccccn1` was tested, and the Potency was inconclusive: 35.5 µM [inhibitor, partial curve, poor fit].
In the case of `Cc1ccc(C(=O)/C=C/Nc2ccc(S(=O)(=O)Nc3cc(C)nc(C)n3)cc2)cc1`, the Potency was inconclusive: 44.7 µM [inhibitor, partial curve, poor fit].
In the case of `CN(CC(=O)NCCc1ccc(S(N)(=O)=O)cc1)Cc1c(F)cccc1Cl`, the Potency was inconclusive: 89.1 µM [inhibitor, single point].
With `CC(C)CC(=O)NCC(c1ccc2c(c1)OCO2)N1CCN(c2ccccc2F)CC1` (centres undefined) the max response, negative = inhibition was inactive: 20.2%.
In the case of `O=c1cc2c(nn1Cc1cccc(Cl)c1)-c1ccccc1CC2`, the Potency was inconclusive: 89.1 µM [inhibitor, single point].
With `CNc1ccc(Br)cc(C(=O)/C=C/c2ccc(OC)cc2)c1=O` the Potency was inconclusive: 70.8 µM [inhibitor, single point].
For `O=C(NC(=S)Nn1cnnc1)c1ccccc1Br`, the Potency was inconclusive: 63.1 µM [inhibitor, partial curve, poor fit].
`NC(=O)CS(=O)(=O)c1nc2ccccc2n1Cc1ccccc1F` was tested, and the Potency was inconclusive: 11.2 µM [inhibitor, partial curve, poor fit].
`Cc1ccccc1NC1=C/C(=N\S(=O)(=O)c2ccc(C(=O)O)cc2)c2ccccc2C1=O` was tested, and the Potency was inconclusive: 79.4 µM [inhibitor, partial curve, poor fit].
`CC1CCCN(C(=O)c2cccc(S(=O)(=O)Nc3cc(C(F)(F)F)ccc3Cl)c2)C1` (centres undefined) was tested, and the Potency was inconclusive: 14.1 µM [inhibitor, partial curve, poor fit].
For `O=C1CCCCCN1Sc1ccccc1`, the Potency was active: 12.6 µM.
`COc1ccc(OC)c(CNC(=O)c2ccccc2NC(=O)c2nsc3ccccc23)c1` was tested, and the max response, negative = inhibition was inactive: 16.3%.
With `Cc1ccc(S(=O)(=O)N2CCC(C(=O)NNC(=O)c3ccccc3O)CC2)cc1C` the Potency was inconclusive: 100 µM [inhibitor, single point].
In the case of `CC(=O)N1CCC2(CCCN(Cc3cc(C(F)(F)F)cc(C(F)(F)F)c3)C2)CC1`, the Potency was inconclusive: 39.8 µM [inhibitor, partial curve, poor fit].
In the case of `Cc1ccc(C(=O)N/C(=C/c2ccccc2F)C(=O)NCCCn2ccnc2)cc1`, the max response, negative = inhibition was inactive: -9.14%.
`COc1cc(/C=C2\C(=O)N(c3ccc(NC(C)=O)cc3)N=C2c2ccccc2)ccc1O` was tested, and the Potency was inconclusive: 89.1 µM [inhibitor, partial curve, poor fit].
With `COC(=O)c1cc(CNC(=O)c2ccc(N3CCCC3)c([N+](=O)[O-])c2)ccc1OC` the Potency was inconclusive: 89.1 µM [inhibitor, partial curve, poor fit].
With `COc1cc2c(cc1OC)CN(c1ccc(C(F)(F)F)cn1)CC2` the Potency was inconclusive: 89.1 µM [inhibitor, single point].
For `c1csc(C2Nc3cccc4cccc(c34)N2)c1`, the Potency was inconclusive: 56.2 µM [inhibitor, partial curve, poor fit].
In the case of `Cc1ccc(CNC(=O)C(=O)NCCC2CCCCN2S(=O)(=O)c2ccccc2)cc1` (centres undefined), the Potency was inconclusive: 50.1 µM [inhibitor, partial curve, poor fit].
With `CN(C)/C=C/c1c([N+](=O)[O-])c2ccc(O)cc2n1-c1ccccc1` the Potency was inconclusive: 100 µM [inhibitor, single point].
With `COc1ccc(/C=C2\SC(=S)N(CC(=O)NC3C=CS(=O)(=O)C3)C2=O)cc1` (centres undefined) the max response, negative = inhibition was inactive: -9.03%.
`CCn1cc(C(=O)OCC(=O)c2cc(C)n(-c3ccccc3F)c2C)c(=O)c2ccc(C)nc21` was tested, and the Potency was inconclusive: 79.4 µM [inhibitor, single point].
For `Cc1ccc(CN2CCC(n3nccc3NC(=O)CCOc3ccccc3)CC2)o1`, the max response, negative = inhibition was inactive: -12.1%.
For `COc1cc(CN2CC(=O)N(c3cc(Cl)ccc3C)C2=S)cc(OC)c1OC`, the Potency was inconclusive: 79.4 µM [inhibitor, partial curve].
For `CC(=Nc1ccccc1)C1=C(O)C(Cc2ccccc2)NC1=O` (centres undefined), the Potency was inconclusive: 39.8 µM [inhibitor, partial curve, poor fit].
In the case of `Cc1ccc(C(=O)COC(=O)CCc2nc3ccccc3[nH]c2=O)cc1C`, the Potency was inconclusive: 0.631 µM [inhibitor, full curve, poor fit].
For `CC(=O)Oc1cc2c(cc1Cl)C(c1cccs1)CC1(CC(C)(C)NC(=S)N1)O2` (centres undefined), the Potency was inconclusive: 56.2 µM [inhibitor, partial curve, poor fit].
For `CCCC(=O)Oc1c(Sc2ccc(C)cc2)c(C)nn1-c1ccccc1`, the Potency was active: 17.8 µM.
`CC(c1nccs1)N(C)C(=O)CCc1nnc(-c2ccc(-c3ccccc3)cc2)o1` (centres undefined) was tested, and the Potency was inconclusive: 89.1 µM [inhibitor, partial curve, poor fit].
With `COc1ccc(Cn2c(SCc3ccc(C(=O)NC4CCCCC4)cc3)nc3cccnc32)cc1` the max response, negative = inhibition was inactive: 9.72%.
For `COc1ccccc1-c1cc(C(F)(F)F)nc(S(=O)(=O)CCCC(=O)Nc2ccccc2F)n1`, the Potency was inconclusive: 50.1 µM [inhibitor, partial curve, poor fit].
With `CN1CCN(c2cc(=O)n(Cc3ccc(F)cc3)c(=O)[nH]2)CC1` the max response, negative = inhibition was inactive: -4.87%.
With `O=C(CSC(=S)N1CCCCC1)c1c(F)cccc1F` the Potency was inconclusive: 63.1 µM [inhibitor, partial curve, poor fit].
With `c1ccc(OCc2nnc3sc(-c4cccs4)nn23)cc1` the Potency was inconclusive: 39.8 µM [inhibitor, single point].
With `Cc1ccc(-n2c(-c3ccc(Cl)cc3)n[nH]c2=S)cc1` the Potency was inconclusive: 15.8 µM [inhibitor, partial curve, poor fit].
With `Cc1ccc(S(=O)(=O)Nc2cccnc2)cc1` the Potency was inconclusive: 28.2 µM [inhibitor, partial curve, poor fit].
With `CC1(C)C(=O)NC2=C1C(=O)C(=O)c1ccccc12` the Potency was active: 20 µM and active: 44.7 µM.
In the case of `O=C(CCS(=O)(=O)c1cccc2nsnc12)NC1CCCCC1`, the max response, negative = inhibition was inactive: 13.1%.
For `CCc1ccc(CNC(=O)CN2C(=O)CSc3ccc(S(=O)(=O)N4CCOCC4)cc32)cc1`, the max response, negative = inhibition was inactive: 6.84%.
`CC(C)(C)C(C(=O)n1cccc1C#N)c1ccccc1` (centres undefined) was tested, and the max response, negative = inhibition was inactive: -4.68%.
In the case of `CCN(C(C)=O)c1cnc(C=NNC(N)=S)c2ccccc12`, the Potency was inconclusive: 89.1 µM [inhibitor, single point].
For `COc1ccc(Cl)cc1NC(=O)CN(c1cccc(C)c1C)S(C)(=O)=O`, the max response, negative = inhibition was inactive: -5.33%.
In the case of `CC(C)[C@@H](CC(=O)N[C@@H]1CCNC[C@H]1C(=O)N[C@H](CC(=O)N[C@@H](CCC(=O)O)CC(=O)O)Cc1c[nH]c2ccccc12)NC(=O)C[C@H](Cc1ccccc1)NC(=O)[C@@H]1CNCC[C@H]1N`, the max response, negative = inhibition was inactive: -1%.
For `CCNC(=O)c1ccccc1SCC(=O)Nc1ccc(F)cc1`, the Potency was inconclusive: 31.6 µM [inhibitor, single point].
`CCOC(=O)CSc1n[nH]c(NC(=O)c2cccc(C(F)(F)F)c2)n1` was tested, and the Potency was inconclusive: 39.8 µM [inhibitor, partial curve, poor fit].
In the case of `Clc1ccccc1-c1nc(/C=N/N2CCOCC2)c2ccccn12`, the Potency was inconclusive: 70.8 µM [inhibitor, partial curve].
In the case of `COc1ccccc1NC(=S)N/N=C/c1cccc(C)c1`, the Potency was inconclusive: 39.8 µM [inhibitor, single point].
With `O=C(NCCc1ccccc1)c1cc2sccc2n1Cc1ccccc1` the Potency was inconclusive: 17.8 µM [inhibitor, partial curve, poor fit].
For `Cc1ccc(S(=O)(=O)N2CCOCC2)cc1NC(=O)CSc1nnc(NC2CC2)s1`, the Potency was inconclusive: 8.91 µM [inhibitor, partial curve, poor fit].
In the case of `Cc1ccccc1-c1cncnc1NCCN1CCOCC1`, the Potency was inconclusive: 50.1 µM [inhibitor, partial curve].
`Cc1ccc(NS(=O)(=O)c2cc(N)ccc2Cl)c(C)c1` was tested, and the max response, negative = inhibition was inactive: -17.2%.
In the case of `CCCCCCOc1ccc(/C=C/C(=O)N2CCOCC2)cc1OC`, the max response, negative = inhibition was inactive: 3.02%.
With `CN(C)S(=O)(=O)c1cccc(-c2nnc(SCc3cc(Cl)cc4c3OCOC4)n2N)c1` the Potency was inconclusive: 56.2 µM [inhibitor, partial curve, poor fit].
For `COc1cc(/C=C2\S/C(=N/S(=O)(=O)Cc3ccccc3)NC2=O)c([N+](=O)[O-])cc1OC`, the max response, negative = inhibition was inactive: -28%.
`COc1ccc(/C=N\NC(=O)c2sc(N)nc2C)cc1OC` was tested, and the Potency was inconclusive: 39.8 µM [inhibitor, partial curve, poor fit].
`Nc1cccc(-c2cnc3ccccc3n2)c1` was tested, and the Potency was inconclusive: 89.1 µM [inhibitor, single point].
`Cc1ccc([N+](=O)[O-])cc1NC(=O)c1ccccc1` was tested, and the max response, negative = inhibition was inactive: -4.05%.
In the case of `Cc1ccc(-n2c(C)cc(C(=O)OCC(=O)N(C)C3CCS(=O)(=O)C3)c2C)cc1` (centres undefined), the max response, negative = inhibition was inactive: 5.08%.
In the case of `COCC(=O)OC1CCn2c1nc1c2C(=O)C(C)=C(NC(C)=O)C1=O` (centres undefined), the max response, negative = inhibition was inactive: -4.01%.
`CCOC(=O)c1csc(N)c1-c1ccc([N+](=O)[O-])cc1` was tested, and the Potency was inconclusive: 56.2 µM [inhibitor, partial curve, poor fit].
`O=[N+]([O-])c1cccc(S(=O)(=O)NCC2CC3CCC2C3)c1` (centres undefined) was tested, and the max response, negative = inhibition was inactive: -14.2%.
In the case of `Cc1ccc(/C=C/C(=O)c2nc3ccccc3[nH]2)cc1`, the Potency was inconclusive: 20 µM [inhibitor, full curve].
